Assay results: PubChem BioAssay AID588590 (National Center for Advancing Translational Sciences (NCATS), 2011)
Out of some 390,000 compounds screened, about 4,000 (1%) were called active. Inconclusive results, whose numbers are uncertain, are shown with a selection of clear calls. Calls follow the shape of the dose curve; as a rule, active = well fitted inhibition curve with a large enough effect; inconclusive = small, poorly fitted or top-dose-only effect, or another doubt; inactive = no such curve, though single readings can be large or run the other way. Where the call is inconclusive, the potency comes from a doubtful curve fit.

Chains of the proteins cited; added tags and fusions are not shown. Lines headed by an entry give the natural chain unless they say otherwise; changes in a name come on top.
UniProt Q9UNA4: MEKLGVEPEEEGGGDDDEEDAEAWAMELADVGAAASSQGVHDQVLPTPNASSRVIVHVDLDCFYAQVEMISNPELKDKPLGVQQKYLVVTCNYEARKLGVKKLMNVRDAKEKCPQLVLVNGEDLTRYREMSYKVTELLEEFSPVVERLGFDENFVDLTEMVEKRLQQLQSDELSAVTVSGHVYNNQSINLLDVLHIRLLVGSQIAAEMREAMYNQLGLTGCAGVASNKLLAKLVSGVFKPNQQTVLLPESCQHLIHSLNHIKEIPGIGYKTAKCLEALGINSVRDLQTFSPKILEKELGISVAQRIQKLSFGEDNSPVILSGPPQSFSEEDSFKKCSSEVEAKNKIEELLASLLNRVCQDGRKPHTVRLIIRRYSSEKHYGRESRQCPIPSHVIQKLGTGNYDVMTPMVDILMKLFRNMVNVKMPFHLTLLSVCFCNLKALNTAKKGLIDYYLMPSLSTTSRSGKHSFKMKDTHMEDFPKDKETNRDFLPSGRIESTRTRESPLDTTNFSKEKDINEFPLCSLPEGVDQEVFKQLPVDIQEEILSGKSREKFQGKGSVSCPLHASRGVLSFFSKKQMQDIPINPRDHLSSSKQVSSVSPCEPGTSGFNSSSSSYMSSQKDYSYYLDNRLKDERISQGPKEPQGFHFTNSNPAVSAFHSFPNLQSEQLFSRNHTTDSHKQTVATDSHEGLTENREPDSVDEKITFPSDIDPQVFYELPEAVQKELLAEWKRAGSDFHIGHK

target: DNA polymerase iota (Homo sapiens) (UniProt Q9UNA4); assay: qHTS for Inhibitors of Polymerase Iota; details: Pol iota fluorescent replication assay, 10 min; series mostly up to 115 µM
In short: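 Fluorescent replication assay read twice, at 0 min and 10 min after adding 50 nM (final) substrate. Enzyme (10 nM) and compounds were first incubated 15 min at room temperature; enzyme-free buffer wells were negative controls.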
Potency is read from the fitted curve at half-maximal effect.

Potency, inactive:
N#CCc1nn(Cc2ccc(F)cc2)c(=O)c2ccccc12, CC1CCCN(S(=O)(=O)c2ccc3[nH]c(=O)cc(C(=O)NCCc4ccc(Cl)cc4)c3c2)C1 (stereo not given), CC(=O)N1CCc2cc(S(=O)(=O)NC(Cc3ccccc3)C(=O)Nc3cccc(C)c3)ccc21 (stereo not given), COc1ccc(N(CC(=O)NCc2ccco2)S(=O)(=O)c2ccc(OC)c(OC)c2)cc1, S=C(NCCN1CCOCC1)N1CCN(c2cccc(Cl)c2)CC1, Cc1nc2c(-c3ccccc3)c(C)nn2c(C)c1CCC(=O)NCc1ccc(F)cc1, Cc1ccc(CNC(=O)C2CCN(S(=O)(=O)c3cc(-c4noc(C)n4)ccc3C)CC2)cc1, Cc1ccccc1S(=O)(=O)N1C[C@H]2CON(C)[C@H]2C[C@H]1c1cccc(Oc2ccccc2)c1, Nc1nc(=S)c2ncn([C@@H]3O[C@H](CO)[C@@H](O)[C@H]3O)c2[nH]1, Cc1cccc(CNC(=O)c2ccc(NC(=O)N3CC(C)Sc4ccccc43)cc2)c1 (stereo not given), O=C(COC(=O)c1n[nH]c2ccccc12)Nc1ccc([N+](=O)[O-])cc1

Potency, inconclusive:
COCCn1nnnc1C(c1ccccc1OC)N1CCc2ccccc2C1 (stereo not given) 39.8 µM [inhibitor, partial curve, poor fit], COc1cccc(C(=O)Nc2ccc(-c3nc4ccccc4o3)c(O)c2)c1 70.8 µM [inhibitor, partial curve], O=C(CCl)Nc1cc2[nH]c(=O)[nH]c2cc1Br 22.4 µM [inhibitor, single point], Cc1ccc(Nc2nc3c(c(=O)[nH]c(=O)n3C)n2Cc2ccc(F)cc2)cc1 89.1 µM [inhibitor, partial curve, poor fit], O=C(Oc1ccccc1F)c1ccc2c(=O)n3c(nc2c1)CCC3 50.1 µM [inhibitor, partial curve], CC(/C=N/NC(=O)c1ccc(Br)cc1)=C\c1ccccc1 7.94 µM [inhibitor, full curve, poor fit], COc1ccc(-c2nnc(CSc3ncnc4sc5c(c34)CCC5)o2)cc1OC 50.1 µM [inhibitor, partial curve, poor fit], Cc1ccccc1CN1c2ccccc2S(=O)(=O)c2ccccc21 89.1 µM [inhibitor, single point], CCc1ccc(C2C(C#N)=C(N)C(C#N)(C#N)C3=CCC(C(C)(C)C)CC32)cc1 (stereo not given) 8.91 µM [inhibitor, full curve, poor fit], Fc1cccc2sc(N3CCCCC3)nc12 2.24 µM [inhibitor, partial curve, poor fit], CC(C)(C)NC(=O)CN(C(=O)CCN1CCCc2ccccc21)C(C)(C)C 126 µM [inhibitor, single point], Cc1cc(SCC(=O)N2CCC(c3noc4ccc(F)cc34)CC2)nc2ccccc12 10 µM [inhibitor, partial curve, poor fit], Cn1c(=O)oc2cc(S(=O)(=O)Nc3ccccc3O)ccc21 1.26 µM [inhibitor, full curve, poor fit], Cc1cn([C@H]2C[C@H](O)[C@@H](CCC(=O)NCc3ccco3)O2)c(=O)[nH]c1=O 89.1 µM [inhibitor, single point], CCOc1ccc(-c2nnc3ccc(SCC(=O)NCc4ccco4)nn23)cc1 50.1 µM [inhibitor, partial curve], CCc1ccc2nc3nc(C)cc(C)c3c(N)c2c1 28.2 µM [inhibitor, partial curve, poor fit], O=C(CN1C(=O)c2cccc3cccc1c23)Nc1cccnc1 44.7 µM [inhibitor, partial curve, poor fit], COc1ccc(CCNC(=O)c2ccc(NC(=O)CC3SC(N4CCCCC4)=NC3=O)cc2)cc1 (stereo not given) 31.6 µM [inhibitor, single point], O=C(NNC(=O)c1cnccn1)c1cccc([N+](=O)[O-])c1 5.01 µM [inhibitor, partial curve], CCOc1ccc(CCNC(=O)c2cc3c(s2)-c2ccccc2OC3)cc1OCC 44.7 µM [inhibitor, single point], CCc1nc(C)ccc1OCC(=O)NCCCN(C)C 39.8 µM [inhibitor, single point], Cc1ccc(-c2cc(NC(=O)COc3ccc(Cl)cc3C)on2)cc1 89.1 µM [inhibitor, partial curve, poor fit], CN(C)c1ccc(C=C2C(=O)OC3(CCCC3)OC2=O)cc1 28.2 µM [inhibitor, single point], CCOC(=O)c1nn(-c2ccccc2)c(C)c1C(C)=O 112 µM [inhibitor, single point], Cn1c(C(=O)NCc2ccco2)cc2c(=O)[nH]c3ccccc3c21 35.5 µM [inhibitor, single point], COc1ccccc1/C=C/C(=O)OCC(=O)NC(=O)NC1CCCC1 35.5 µM [inhibitor, partial curve, poor fit], O=C(O)c1ccc(/C=C2\SC(=S)N(NC(=O)c3ccccc3)C2=O)cc1 15.8 µM [inhibitor, full curve, poor fit], CS(=O)(=O)N1Cc2ccccc2CC1C(=O)OCC(=O)Nc1ccc2ccccc2c1 (stereo not given) 25.1 µM [inhibitor, single point], Cc1cc(Br)ccc1OCC(=O)NNC(=O)Cc1ccccc1 89.1 µM [inhibitor, partial curve, poor fit], COc1cc(CN2CCN(C(=O)CC(C)C)CC2)cc(OC)c1O 17.8 µM [inhibitor, partial curve, poor fit], O=C(NNC(=O)c1ccccc1O)c1ccccc1O 7.08 µM [inhibitor, partial curve, poor fit], CC(C)Nc1nnc(SCC(=O)Nc2sccc2C#N)s1 50.1 µM [inhibitor, partial curve, poor fit], CCCCCCSc1cc(-c2nc3ccc(C)cn3c2NCCCC)ccc1OC 20 µM [inhibitor, single point], Cc1ccc(/C=C/C(=O)OCC(=O)NC(=O)NCc2ccco2)cc1 50.1 µM [inhibitor, partial curve, poor fit], COc1cc(CCCN2CCNC[C@H]2Cc2ccc(O)cc2)cc(OC)c1OC 20 µM [inhibitor, single point], Cc1cc(-c2ccccc2)nc2cc(C(=O)NCc3ccco3)nn12 56.2 µM [inhibitor, partial curve, poor fit], COc1ccccc1C(=O)Nc1c(C(=O)N(C)Cc2ccccc2)sc2nc(C)c(Cl)c(C)c12 4.47 µM [inhibitor, full curve, poor fit], COC(=O)c1cc(NC(=O)CC2SC(=Nc3ccccc3)N(CCc3c[nH]c4ccccc34)C2=O)cc(C(=O)OC)c1 (stereo not given) 10 µM [inhibitor, partial curve, poor fit], Cn1nc(C(C)(C)C)c([N+](=O)[O-])c1C(N)=O 89.1 µM [inhibitor, partial curve, poor fit], CN(C[C@H](Cc1ccccc1)N(C[C@H](Cc1cccc2ccccc12)N(CCc1ccccc1)N=O)N=O)N=O 79.4 µM [inhibitor, single point], COc1ccc(O)c(/C=N/NC(=O)c2ccc(CSc3nc(C)cc(C)n3)cc2)c1 56.2 µM [inhibitor, partial curve, poor fit], COc1ccc(C(=O)O)cc1NC(=S)NC(=O)C(c1ccccc1)c1ccccc1 100 µM [inhibitor, single point], COc1cc2c(cc1OC)C(=O)N1[C@H]3c4cc(Cl)ccc4OC[C@@H]3[C@H](c3ccccc3)[C@]1(C)C(=O)N2 35.5 µM [inhibitor, partial curve, poor fit], Cc1cccc(N2CC(C(=O)OCC(=O)c3ccc(OC(=O)c4cccs4)cc3)CC2=O)c1C (stereo not given) 56.2 µM [inhibitor, partial curve, poor fit], CC(=O)NC(Cc1ccc(F)cc1)C(=O)N1CCN(C(=O)NCc2ccccc2)CC1 (stereo not given) 79.4 µM [inhibitor, partial curve, poor fit], Cc1c(C)n(C(=O)CSc2nc3ccccc3[nH]2)c2ccccc12 100 µM [inhibitor, partial curve, poor fit], Cc1c(C)c2ccc(OCC(=O)Nc3ccc(S(N)(=O)=O)cc3)c(C)c2oc1=O 22.4 µM [inhibitor, full curve, poor fit], CCOc1ccc(CCNS(=O)(=O)c2cnc[nH]2)cc1OCC 7.94 µM [inhibitor, single point], COc1ccc(N2CC(C(=O)OCC(=O)Nc3cc(C)on3)CC2=O)cc1 (stereo not given) 89.1 µM [inhibitor, single point]
